Source: US8080522B2 (Institute of Pharmacology and Toxicology Academy of …, priority 2005, dated 2011)

Protein sequences, listed by entry. Tags and fused reporters are not part of them. Lines headed by an entry give the natural chain unless they say otherwise; changes in a name come on top.
UniProt P06454: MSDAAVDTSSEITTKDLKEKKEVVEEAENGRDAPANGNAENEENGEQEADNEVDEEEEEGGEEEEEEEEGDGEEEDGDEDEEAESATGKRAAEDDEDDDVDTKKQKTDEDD

Experiment: general procedure: Fmoc solid-phase peptide synthesis; Wang resin; DCC/HOBt
Conditions: conjugation step
With “Ac-[Cys^5(mPEG5000-MAL)]Tα1 (SDAACDTSSEITTKDLKEKKEVVEEAEN; Thymosin alpha-1 N-acetyl; mPEG5000-maleimide on Cys5; UniProt P06454 2-29, looked up, variant V5C)” the conjugation yield was 38.2%. Substance “Ac-[Cys^8(mPEG5000-MAL)]Tα1 (SDAAVDTCSEITTKDLKEKKEVVEEAEN; Thymosin alpha-1 N-acetyl; mPEG5000-maleimide on Cys8; UniProt P06454 2-29, looked up, variant S8C)” has a conjugation yield of 37.1%. In the case of “Ac-[Cys^16(mPEG5000-MAL)]Tα1 (SDAAVDTSSEITTKDCKEKKEVVEEAEN; Thymosin alpha-1 N-acetyl; mPEG5000-maleimide on Cys16; UniProt P06454 2-29, looked up, variant L16C)”, the conjugation yield is reported as 53.3%. “Ac-[Cys^17(mPEG5000-MAL)]Tα1 (SDAAVDTSSEITTKDLCEKKEVVEEAEN; Thymosin alpha-1 N-acetyl; mPEG5000-maleimide on Cys17; UniProt P06454 2-29, looked up, variant K17C)” gave a conjugation yield of 42.6%.
